± gives the standard deviation of the averaged measurements. Values are raw readings; no control value is given beside them.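 Maximum concentrations were near the MIC for antimicrobials, 500 µM for most other compounds, and as high as 1 mM for known inducer-like compounds. Deletion strains began with a tenfold smaller inoculum, and wells with growth under 10% of the overall median counted as non-growing.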
Tested on: Escherichia coli BW25113
Experiment: growth (OD600 area under curve, 8 h) (OD600 x h); higher = more growth
Method: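 E. coli BW25113 reporter strains (wild type, ΔmarA, ΔsoxS, Δrob, each carrying one of 8 lux reporter plasmids) were grown in 40 µl LB in 384-well plates at 37°C, 800 rpm, with each compound at 4 two-fold concentrations, in biological duplicates. Growth is the baseline-corrected OD600 area under the curve over 8 h (0-8 h WT, 1-9 h deletion strains).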

C[C@]12CC[C@H]3[C@@H](CCC4=CC(=O)CC[C@@]43C)[C@@H]1CC[C@@H]2O [Testosterone]
growth
Conditions	reporter plasmid: EVC	reporter plasmid: acrABp	reporter plasmid: marRABp	reporter plasmid: micFp	reporter plasmid: ompFp	reporter plasmid: robp	reporter plasmid: soxSp	reporter plasmid: tolCp
18 µg/ml, genetic background: wild type	2.78 ± 0.29	3.41 ± 0.078	3.21 ± 0.37	2.92 ± 0.41	3 ± 0.32	3.018 ± 0.01	2.76 ± 0.065	2.67 ± 0.1
18 µg/ml, genetic background: ΔmarA	3.03 ± 0.09	4.27 ± 0.06	3.47 ± 0.067	3.23 ± 0.76	3.35 ± 0.91	3.53 ± 0.36	2.627 ± 0.013	2.87 ± 0.34
18 µg/ml, genetic background: Δrob	2.74 ± 0.073	3.78 ± 0.095	3.54 ± 0.3	2.84 ± 0.07	2.46 ± 0.74	3.04 ± 0.21	2.59 ± 0.22	2.79 ± 0.21
18 µg/ml, genetic background: ΔsoxS	2.977 ± 0.003	3.77 ± 0.71	3.35 ± 0.55	2.635 ± 0.026	2.78 ± 0.068	3.33 ± 0.064	3.05 ± 0.49	2.9 ± 0.25
36.1 µg/ml, genetic background: wild type	2.85 ± 0.37	3.24 ± 0.17	3.3 ± 0.15	2.96 ± 0.22	2.73 ± 0.13	2.83 ± 0.053	2.79 ± 0.032	2.81 ± 0.2
36.1 µg/ml, genetic background: ΔmarA	2.88 ± 0.24	3.99 ± 0.071	3.3 ± 0.27	3.16 ± 0.83	3.29 ± 0.84	3.57 ± 0.33	2.72 ± 0.14	2.78 ± 0.3
36.1 µg/ml, genetic background: Δrob	2.79 ± 0.12	3.65 ± 0.39	3.21 ± 0.071	2.91 ± 0.22	2.52 ± 0.81	2.84 ± 0.31	2.65 ± 0.17	2.78 ± 0.36
36.1 µg/ml, genetic background: ΔsoxS	3.01 ± 0.061	3.58 ± 0.55	3.35 ± 0.58	2.75 ± 0.028	2.94 ± 0.044	3.17 ± 0.037	3.03 ± 0.084	3.18 ± 0.45
72.1 µg/ml, genetic background: wild type	2.92 ± 0.22	3.19 ± 0.26	3.538 ± 0.011	2.84 ± 0.16	3.12 ± 0.29	2.97 ± 0.17	2.74 ± 0.056	2.87 ± 0.05
72.1 µg/ml, genetic background: ΔmarA	2.98 ± 0.33	4.02 ± 0.14	3.28 ± 0.2	3.14 ± 0.58	3.3 ± 0.66	3.69 ± 0.34	2.75 ± 0.33	2.88 ± 0.33
72.1 µg/ml, genetic background: Δrob	2.67 ± 0.14	3.48 ± 0.11	3.14 ± 0.11	2.64 ± 0.18	2.48 ± 0.79	3.05 ± 0.37	2.56 ± 0.044	2.781 ± 0.017
72.1 µg/ml, genetic background: ΔsoxS	3.1 ± 0.088	3.6 ± 0.3	3.56 ± 0.61	2.77 ± 0.069	3.03 ± 0.092	3.38 ± 0.13	2.99 ± 0.37	3.28 ± 0.53
144.2 µg/ml, genetic background: wild type	3.01 ± 0.53	3.33 ± 0.22	3.41 ± 0.2	2.787 ± 0.0089	3.23 ± 0.14	2.85 ± 0.29	2.71 ± 0.094	2.916 ± 0.022
144.2 µg/ml, genetic background: ΔmarA	2.95 ± 0.26	3.56 ± 0.37	3.25 ± 0.1	3.21 ± 0.67	3.33 ± 0.65	3.55 ± 0.14	2.67 ± 0.34	2.78 ± 0.43
144.2 µg/ml, genetic background: Δrob	2.77 ± 0.27	3.235 ± 0.032	3.09 ± 0.41	2.71 ± 0.09	2.32 ± 0.67	2.78 ± 0.34	2.72 ± 0.19	2.7 ± 0.05
144.2 µg/ml, genetic background: ΔsoxS	3.427 ± 0.034	3.78 ± 0.3	3.43 ± 0.62	2.66 ± 0.22	3.031 ± 0.0097	3.29 ± 0.16	3.14 ± 0.36	3.14 ± 0.61

CC(=O)O[C@H]1C[C@@]2(C)[C@@H](C[C@@H](O)[C@H]3[C@@]4(C)CC[C@@H](O)[C@@H](C)[C@@H]4CC[C@@]32C)/C1=C(\CCC=C(C)C)C(=O)O [Fusidic acid]
growth
Conditions	reporter plasmid: EVC	reporter plasmid: acrABp	reporter plasmid: marRABp	reporter plasmid: micFp	reporter plasmid: ompFp	reporter plasmid: robp	reporter plasmid: soxSp	reporter plasmid: tolCp
13.5 µg/ml, genetic background: wild type	2.94 ± 0.036	3.31 ± 0.28	3.363 ± 0.0016	3.09 ± 0.21	3.23 ± 0.11	3.28 ± 0.097	2.97 ± 0.24	3.02 ± 0.18
13.5 µg/ml, genetic background: ΔmarA	3.34 ± 0.8	4.39 ± 0.71	3.67 ± 0.36	3.27 ± 0.52	3.55 ± 0.64	3.96 ± 0.28	3.11 ± 0.34	2.98 ± 0.37
13.5 µg/ml, genetic background: Δrob	3 ± 0.25	3.07 ± 0.26	3.47 ± 0.37	3.02 ± 0.26	2.79 ± 0.61	2.73 ± 0.22	2.96 ± 0.29	3.146 ± 0.022
13.5 µg/ml, genetic background: ΔsoxS	3.25 ± 0.17	3.25 ± 0.63	3.26 ± 0.59	2.91 ± 0.15	3.25 ± 0.19	3.46 ± 0.28	3.17 ± 0.46	3.05 ± 0.17
26.9 µg/ml, genetic background: wild type	2.87 ± 0.15	3.2 ± 0.047	3.22 ± 0.2	2.97 ± 0.3	3.14 ± 0.16	3.384 ± 0.0081	2.93 ± 0.3	3.02 ± 0.15
26.9 µg/ml, genetic background: ΔmarA	3.05 ± 0.48	4.16 ± 0.54	3.61 ± 0.21	3.07 ± 0.48	3.27 ± 0.77	3.74 ± 0.34	2.91 ± 0.66	2.76 ± 0.22
26.9 µg/ml, genetic background: Δrob	2.97 ± 0.32	3.097 ± 0.013	3.28 ± 0.46	3.09 ± 0.17	2.63 ± 0.64	2.54 ± 0.18	2.86 ± 0.23	3.12 ± 0.14
26.9 µg/ml, genetic background: ΔsoxS	3.09 ± 0.25	3.17 ± 0.73	3.2 ± 0.65	2.85 ± 0.13	3.17 ± 0.41	3.02 ± 0.34	3.18 ± 0.28	3.02 ± 0.052
53.9 µg/ml, genetic background: wild type	2.54 ± 0.084	2.95 ± 0.2	3.09 ± 0.096	2.99 ± 0.038	3.07 ± 0.13	3.12 ± 0.15	2.973 ± 0.018	2.99 ± 0.14
53.9 µg/ml, genetic background: ΔmarA	2.9 ± 0.54	3.7 ± 0.28	3.33 ± 0.48	2.96 ± 0.49	3.2 ± 0.78	3.41 ± 0.2	3 ± 0.7	2.51 ± 0.064
53.9 µg/ml, genetic background: Δrob	2.92 ± 0.26	2.86 ± 0.048	2.97 ± 0.64	2.76 ± 0.064	2.4 ± 0.48	2.28 ± 0.12	2.91 ± 0.24	2.79 ± 0.028
53.9 µg/ml, genetic background: ΔsoxS	3.01 ± 0.38	2.9 ± 0.81	2.97 ± 0.33	2.7 ± 0.17	2.91 ± 0.26	3.1 ± 0.23	2.95 ± 0.35	2.79 ± 0.051
107.7 µg/ml, genetic background: wild type	1.98 ± 0.16	1.92 ± 0.41	1.81 ± 0.047	2.14 ± 0.2	1.9 ± 0.14	1.72 ± 0.11	2.51 ± 0.045	2.22 ± 0.1
107.7 µg/ml, genetic background: ΔmarA	1.94 ± 0.57	2.04 ± 1	1.35 ± 0.48	1.73 ± 0.55	1.27 ± 0.17	2.18 ± 0.8	2.52 ± 0.53	1.554 ± 0.0062
107.7 µg/ml, genetic background: Δrob	1.99 ± 0.44	0.91 ± 0.12	1.29 ± 0.58	1.67 ± 0.23	0.89 ± 0.086	0.615 ± 0.26	2.3 ± 0.36	1.82 ± 0.29
107.7 µg/ml, genetic background: ΔsoxS	2.17 ± 0.29	1.09 ± 0.15	1.33 ± 1.1	1.57 ± 0.13	1 ± 0.47	0.52 ± 0.24	1.73 ± 0.17	2.03 ± 0.06

Reference: the supplement of paper PMC12282887
